No constants are given. Whether binding was seen depends on the method and setting. In cells and extracts the contact can be indirect. These calls come from enrichment with a bait or labelling near it, and not all partners need be listed. Where a sequence is shown, tags or fusion partners need not be part of it. Blank lines part the entries; values can stand above or below the molecule they belong to.
Molecular target: T1, Flag-tagged TBX3 (UniProt O15119)
T1 sequence: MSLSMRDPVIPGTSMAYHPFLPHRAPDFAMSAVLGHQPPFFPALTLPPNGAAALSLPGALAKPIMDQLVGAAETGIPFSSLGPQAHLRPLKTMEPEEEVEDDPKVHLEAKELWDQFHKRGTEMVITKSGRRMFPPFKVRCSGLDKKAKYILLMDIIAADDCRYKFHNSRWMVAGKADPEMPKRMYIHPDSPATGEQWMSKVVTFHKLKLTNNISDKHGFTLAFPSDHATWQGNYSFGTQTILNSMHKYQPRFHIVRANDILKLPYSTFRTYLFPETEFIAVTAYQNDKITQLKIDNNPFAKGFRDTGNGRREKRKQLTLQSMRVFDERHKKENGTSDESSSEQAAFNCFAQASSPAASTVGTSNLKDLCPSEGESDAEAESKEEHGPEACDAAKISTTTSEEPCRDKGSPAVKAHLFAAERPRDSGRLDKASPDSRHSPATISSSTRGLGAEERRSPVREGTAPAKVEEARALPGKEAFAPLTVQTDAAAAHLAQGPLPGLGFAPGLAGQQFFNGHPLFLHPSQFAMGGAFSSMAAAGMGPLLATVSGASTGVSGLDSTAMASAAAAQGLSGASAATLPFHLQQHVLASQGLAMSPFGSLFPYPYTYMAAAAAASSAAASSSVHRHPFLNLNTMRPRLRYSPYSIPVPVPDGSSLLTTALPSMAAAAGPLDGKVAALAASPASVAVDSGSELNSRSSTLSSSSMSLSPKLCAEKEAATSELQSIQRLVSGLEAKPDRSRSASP
Test: affinity purification with mass spectrometry; Flag-TBX3 over-expressed in HEK293T for 48 h; lysate (50 mM Tris-HCl pH 7.4, 150 mM NaCl, 5 mM EDTA, 0.5% NP-40) on Flag-M2 beads, eluted with FLAG peptide, SDS-PAGE, in-gel digestion

The chains behind the UniProt entries cited, without tags or fusion partners.
UniProt Q92769: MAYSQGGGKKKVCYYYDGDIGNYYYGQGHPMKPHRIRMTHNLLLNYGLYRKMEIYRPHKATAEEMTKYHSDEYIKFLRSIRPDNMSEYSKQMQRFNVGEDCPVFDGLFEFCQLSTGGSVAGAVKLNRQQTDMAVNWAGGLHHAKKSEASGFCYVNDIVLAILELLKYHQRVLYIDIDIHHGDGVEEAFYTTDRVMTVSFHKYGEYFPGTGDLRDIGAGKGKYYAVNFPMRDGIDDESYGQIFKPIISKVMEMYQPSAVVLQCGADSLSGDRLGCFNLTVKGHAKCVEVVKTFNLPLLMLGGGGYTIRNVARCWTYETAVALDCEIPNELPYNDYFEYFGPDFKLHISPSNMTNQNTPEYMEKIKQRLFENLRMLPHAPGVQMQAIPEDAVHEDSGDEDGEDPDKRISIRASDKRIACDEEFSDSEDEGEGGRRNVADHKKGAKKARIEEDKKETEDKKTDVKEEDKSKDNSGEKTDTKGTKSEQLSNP

binding: binds
Molecule: HDAC2 (endogenous, found with Flag-TBX3 by IP-MS) (from UniProt Q92769 1-488) (enzyme)

binding: binds
B1: USP15 (endogenous, found with Flag-TBX3 by IP-MS) (enzyme, UniProt Q9Y4E8 1-981)
chain: MAEGGAADLDTQRSDIATLLKTSLRKGDTWYLVDSRWFKQWKKYVGFDSWDKYQMGDQNVYPGPIDNSGLLKDGDAQSLKEHLIDELDYILLPTEGWNKLVSWYTLMEGQEPIARKVVEQGMFVKHCKVEVYLTELKLCENGNMNNVVTRRFSKADTIDTIEKEIRKIFSIPDEKETRLWNKYMSNTFEPLNKPDSTIQDAGLYQGQVLVIEQKNEDGTWPRGPSTPKSPGASNFSTLPKISPSSLSNNYNNMNNRNVKNSNYCLPSYTAYKNYDYSEPGRNNEQPGLCGLSNLGNTCFMNSAIQCLSNTPPLTEYFLNDKYQEELNFDNPLGMRGEIAKSYAELIKQMWSGKFSYVTPRAFKTQVGRFAPQFSGYQQQDCQELLAFLLDGLHEDLNRIRKKPYIQLKDADGRPDKVVAEEAWENHLKRNDSIIVDIFHGLFKSTLVCPECAKISVTFDPFCYLTLPLPMKKERTLEVYLVRMDPLTKPMQYKVVVPKIGNILDLCTALSALSGIPADKMIVTDIYNHRFHRIFAMDENLSSIMERDDIYVFEININRTEDTEHVIIPVCLREKFRHSSYTHHTGSSLFGQPFLMAVPRNNTEDKLYNLLLLRMCRYVKISTETEETEGSLHCCKDQNINGNGPNGIHEEGSPSEMETDEPDDESSQDQELPSENENSQSEDSVGGDNDSENGLCTEDTCKGQLTGHKKRLFTFQFNNLGNTDINYIKDDTRHIRFDDRQLRLDERSFLALDWDPDLKKRYFDENAAEDFEKHESVEYKPPKKPFVKLKDCIELFTTKEKLGAEDPWYCPNCKEHQQATKKLDLWSLPPVLVVHLKRFSYSRYMRDKLDTLVDFPINDLDMSEFLINPNAGPCRYNLIAVSNHYGGMGGGHYTAFAKNKDDGKWYYFDDSSVSTASEDQIVSKAAYVLFYQRQDTFSGTGFFPLDRETKGASAATGIPLESDEDSNDNDNDIENENCMHTN

From publication PMC11096176
